Test results: article PMC12284142
No constants are given. Whether binding was seen depends on the method and setting. Binding seen in cells or lysates may run through a third protein. Some binding calls cover weakened binding; strength is not graded here. For some assays here: Tags and fused reporters may be left off the sequences shown.

T1: Interleukin enhancer-binding factor 3 (ILF3) (human (endogenous in SW620)) (UniProt Q12906)
T1 sequence: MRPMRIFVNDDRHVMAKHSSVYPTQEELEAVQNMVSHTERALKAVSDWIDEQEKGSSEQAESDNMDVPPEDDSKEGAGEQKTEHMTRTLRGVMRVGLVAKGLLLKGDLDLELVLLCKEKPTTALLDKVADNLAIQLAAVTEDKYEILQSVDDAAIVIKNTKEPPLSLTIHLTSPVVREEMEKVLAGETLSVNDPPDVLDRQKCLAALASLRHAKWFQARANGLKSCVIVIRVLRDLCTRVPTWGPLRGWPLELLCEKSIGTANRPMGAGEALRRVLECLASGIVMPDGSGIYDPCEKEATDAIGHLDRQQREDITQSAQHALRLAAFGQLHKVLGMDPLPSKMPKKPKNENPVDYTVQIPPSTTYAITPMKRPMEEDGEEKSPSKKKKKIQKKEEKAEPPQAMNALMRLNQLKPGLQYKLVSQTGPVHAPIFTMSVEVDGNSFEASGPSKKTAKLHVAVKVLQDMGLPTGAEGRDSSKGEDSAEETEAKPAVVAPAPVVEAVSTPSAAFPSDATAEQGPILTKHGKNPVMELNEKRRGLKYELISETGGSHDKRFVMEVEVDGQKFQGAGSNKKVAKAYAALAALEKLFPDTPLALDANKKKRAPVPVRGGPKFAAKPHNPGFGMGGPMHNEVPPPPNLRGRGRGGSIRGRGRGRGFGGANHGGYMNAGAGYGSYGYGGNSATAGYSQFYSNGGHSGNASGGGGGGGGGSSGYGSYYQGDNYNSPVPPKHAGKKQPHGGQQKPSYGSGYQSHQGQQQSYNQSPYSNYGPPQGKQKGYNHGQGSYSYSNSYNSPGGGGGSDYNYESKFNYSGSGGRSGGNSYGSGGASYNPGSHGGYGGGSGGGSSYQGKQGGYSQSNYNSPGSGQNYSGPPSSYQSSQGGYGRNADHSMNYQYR

T2: Myc-tagged ILF3 (UniProt Q12906)
T2 sequence: T1 sequence

B1: E3 ligase TRIM17 (protein, UniProt Q9Y577 1-477)
chain: MEAVELARKLQEEATCSICLDYFTDPVMTTCGHNFCRACIQLSWEKARGKKGRRKRKGSFPCPECREMSPQRNLLPNRLLTKVAEMAQQHPGLQKQDLCQEHHEPLKLFCQKDQSPICVVCRESREHRLHRVLPAEEAVQGYKLKLEEDMEYLREQITRTGNLQAREEQSLAEWQGKVKERRERIVLEFEKMNLYLVEEEQRLLQALETEEEETASRLRESVACLDRQGHSLELLLLQLEERSTQGPLQMLQDMKEPLSRKNNVSVQCPEVAPPTRPRTVCRVPGQIEVLRGFLEDVVPDATSAYPYLLLYESRQRRYLGSSPEGSGFCSKDRFVAYPCAVGQTAFSSGRHYWEVGMNITGDALWALGVCRDNVSRKDRVPKCPENGFWVVQLSKGTKYLSTFSALTPVMLMEPPSHMGIFLDFEAGEVSFYSVSDGSHLHTYSQATFPGPLQPFFCLGAPKSGQMVISTVTMWVKG
B2: Flag-tagged TRIM17 (protein, UniProt Q9Y577 1-477)
chain: B1 chain

What was measured:
[1] = molecular target: T1, Interleukin enhancer-binding factor 3 (ILF3) (human (endogenous in SW620)); assay: co-IP; SW620 cell lysates (IP lysis buffer), anti-ILF3 or anti-TRIM17 antibody and control IgG overnight at 4 °C, protein A/G magnetic beads, washed with PBS, western blot; also cells treated with TNF-α (40 ng/mL, 24 h)
Myc-tagged ILF3 = molecular target: T2, Myc-tagged ILF3; assay: co-IP; HEK293T cells co-transfected with Flag-TRIM17 or control vector and Myc-ILF3 for 48 h, IP and IB; also cells treated with TNF-α (40 ng/mL, 24 h) and MG132 (20 μM, 4 h)

Binder	binding [1]	binding (Myc-tagged ILF3)
B1	binds	–
B2	–	binds
